Results taken from PMC10441969, “Small protein Cgl2215 enhances phenolic tolerance by promoting MytA activity in Corynebacterium glutamicum” (Stress Biology, 2022).
Like-named read-outs stand apart in the source and are kept apart here. Results are given in words; binding and its absence hold for the method and conditions named. In cells and extracts the contact can be indirect. A yes stands for co-enrichment or nearness to the bait. Other partners may have been found. Sequences can lack the tags named with a protein.

Amino acid sequences for entries named in this document (tags omitted).
UniProt H7C663: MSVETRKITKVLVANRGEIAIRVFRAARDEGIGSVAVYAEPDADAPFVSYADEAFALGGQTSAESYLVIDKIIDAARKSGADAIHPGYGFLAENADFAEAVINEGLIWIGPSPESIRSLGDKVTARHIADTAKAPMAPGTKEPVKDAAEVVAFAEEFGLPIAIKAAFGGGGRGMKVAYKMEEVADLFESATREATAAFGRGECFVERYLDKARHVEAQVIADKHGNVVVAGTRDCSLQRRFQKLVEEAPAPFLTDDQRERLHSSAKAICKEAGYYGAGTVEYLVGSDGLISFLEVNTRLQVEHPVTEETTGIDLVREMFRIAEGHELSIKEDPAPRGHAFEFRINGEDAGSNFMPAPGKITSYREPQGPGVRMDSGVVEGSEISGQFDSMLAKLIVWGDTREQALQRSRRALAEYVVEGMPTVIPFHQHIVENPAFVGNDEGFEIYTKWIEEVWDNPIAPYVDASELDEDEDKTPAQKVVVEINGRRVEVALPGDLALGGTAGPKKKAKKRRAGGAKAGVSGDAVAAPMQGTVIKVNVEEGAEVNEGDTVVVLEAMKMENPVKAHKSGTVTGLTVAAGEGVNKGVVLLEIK

T1: GST-Cgl2215 (C. glutamicum) (UniProt Q8NNI6)
T1 sequence: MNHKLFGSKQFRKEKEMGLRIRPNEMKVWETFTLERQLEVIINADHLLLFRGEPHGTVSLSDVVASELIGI


Experiments:
[1] = target: T1, GST-Cgl2215 (C. glutamicum); test: affinity purification with mass spectrometry; purified GST-Cgl2215 (0.1 mg) on GST magnetic beads, incubated with wild-type C. glutamicum lysate overnight at 4 °C; washed five times with TEN buffer (50 mM Tris-HCl pH 8.0, 500 mM NaCl); SDS-PAGE, silver stain, bands analysed by LC-MS/MS; only the target purified
[2] = target: T1, GST-Cgl2215 (C. glutamicum); test: as above; remark: listed apart in the source

binding [1] | binding [2] | Molecule
binds |  | AccBC (from UniProt H7C663 1-591) (enzyme)
binds |  | SdhA (enzyme)
binds |  | Tkt (enzyme)
 | binds | C. glutamicum mycoloyltransferase A (MytA) (enzyme, UniProt P0C1D6 44-657) QSSNLSSDAVIGSIAQGVTDGLTDYLKPRVEELPAGEVTYPEIAGLPDGVRVISAEWATSKHVILTIQSAAMPERPIKVQLLLPRDWYSSPNREFPEIWALDGLRAIEEQSGWTIETNIEQYYADKNAIVVLPVGGESSFYSDWEGPNNGKNYQWETFLTQELAPILDKGFRSNTDRAITGISMGGTAAVNIATHHPDMFKFVGSFSGYLDTTSAGMPIAISAALADAGGYDANAMWGPVGSERWQENDPKSNVDKLKGKTIYVSSGNGADDFGKEGSVAIGPANAAGVGLEVISRMTSQTFVDRASQAGVEVVASFRPSGVHSWEYWQFEMTQAFPHIANALGMSTEDRGVECAPVGAIADAVADGAMGTCLTNEYDVTGGKAQDFANGRAYWSANTGAFGLVGRINARYSELGGPASWLGYPTSSELKTPDGRGRFVTFEHGSIYWTATTGPWEIPGDMLAAWGTQDYEKGSLGYPTGAAVEYNGGLRQQFEGGYVFRTSNNQSYWVRGEISKKYAEDGIFAQLGFPTGNEKLINGGAFQEFEKGNIYWSASTGAHVILHGDIFDAWGAKGWEQGEYGFPTSDQTAITAGGQTIDFQNGTIRQVNGRIEESR
